Measured values reported in PubChem BioAssay AID2685 (National Center for Advancing Translational Sciences (NCATS), 2010).
Some of the results follow. These are further read-outs of the screen, such as a control signal, another cell line or another target. No call is given for them. The list favours compounds with an active or inconclusive main result. Potencies come from curve fits of mixed quality, noted in brackets.

Test: qHTS Assay for Lipid Storage Modulators in Drosophila S3 Cells;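 on cell number change: cells counted by Cell Tracker Red CMTPX staining in the red channel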
Conditions: BODIPY lipid droplet fluorescence, 18-24 h; for cell number change: measured here: cell count max response, cells fed with added oleic acid
In short: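 Drosophila S3 cells loaded with oleic acid (400 uM, as added) and compounds at several concentrations; lipid droplets imaged by 488-nm laser-scanning cytometry, 500–530 nm intensity and object ratio to cell channel. Percent activity normalized to 20 uM Triacsin C.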

[1] = measured here: lipid fluorescence (Fed channel) AC50, cells fed with added oleic acid
[2] = measured here: cell number channel AC50, cells fed with added oleic acid

| Structure (SMILES) | AC50 [1] | cell number change | AC50 [2] |
| --- | --- | --- | --- |
| COc1ccccc1NC(=O)CCc1nc2ccccc2s1 | 6.51 µM [falling, single point] | – | – |
| Cc1ccc(-c2nnc(COC(=O)c3cccs3)o2)cc1 | 2.91 µM [rising, single point] | -8.01% | – |
| CN(CC(=O)Nc1ccc(Cl)c(C(F)(F)F)c1)C(=O)c1ccc(N2CCOCC2)c([N+](=O)[O-])c1 | 18.4 µM [rising, partial curve] | 42.2% | 18.4 µM [rising, single point] |
| O=C(CN1CCN(C2CCCCC2)CC1)c1c[nH]c2ccccc12 | – | -34.8% | 10.3 µM [falling, partial curve] |
| COc1ccc(S(=O)(=O)N2CCC(C(=O)NCC3CCCO3)CC2)cc1OC (configuration not stated) | – | -14.5% | – |
| COc1cccc(NC(=O)C/C(C)=N/NC(=O)C2CCCCC2)c1 | – | -21% | – |
| O=C(CSc1nc2c(sc3ccccc32)c(=O)n1CCc1ccccc1)NCc1ccco1 | 0.651 µM [rising, single point] | 48.6% | 1.03 µM [rising, full curve, poor fit] |
| CC(=O)Nc1cccc(NC(=O)C(F)(F)F)c1 | 3.66 µM [rising, single point] | -4.46% | 0.651 µM [falling, single point] |
| Cc1ccc(S(=O)(=O)N2C(=O)CCC2C(=O)O/N=C(\N)c2ccccc2)cc1 (configuration not stated) | 6.51 µM [rising, single point] | – | – |
| Cc1ccc(NC(=O)c2c([N+](=O)[O-])cnn2C)cc1C | – | -5.28% | – |
| Cc1ccc2nc(C)c(C)nc2c1N | 6.51 µM [rising, single point] | – | 6.51 µM [rising, single point] |
| Cc1ccc(-n2nnnc2SCn2nnc3ccccc3c2=O)c(C)c1 | 5.8 µM [falling, partial curve] | -32.8% | 2.31 µM [falling, full curve] |
| CNc1ccc(Br)cc(C(=O)/C=C/c2cccc(Cl)c2Cl)c1=O | 5.17 µM [falling, partial curve, poor fit] | -44.1% | 29.1 µM [falling, single point] |
| COc1ccc(Nc2c3c(nc4c(-c5ccccc5)c(C)nn24)CCC3)cc1 | 29.1 µM [falling, single point] | -72.2% | 29.1 µM [falling, single point] |
| COc1ccc(-n2nc(C(=O)NCc3ccco3)c3c4ccccc4n(C)c3c2=O)cc1Cl | 0.731 µM [rising, single point] | – | 2.06 µM [rising, partial curve] |
| Cc1c(CN2CCCCC2)c(O)n(CCO)c(=O)c1C#N | 2.31 µM [rising, single point] | 2.42% | – |
| Cc1c(C(=O)NCC2CCCO2)cccc1[N+](=O)[O-] (configuration not stated) | 6.51 µM [rising, single point] | -40.8% | 29.1 µM [falling, single point] |
| CSc1nc2ccccc2n1CC(=O)Nc1c(C)n(C)n(-c2ccccc2)c1=O | 0.82 µM [rising, partial curve] | -17.9% | 0.651 µM [falling, full curve, poor fit] |
| COc1ccc(CSc2nc3ccccc3c(=O)[nH]2)cc1F | 0.103 µM [rising, full curve, poor fit] | 14.2% | – |

| Structure (SMILES) | AC50 [1] | cell number change | AC50 [2] |
| --- | --- | --- | --- |
| CCOc1cc2[nH]c(=O)n(CCCCCC(=O)NC3CCCC3)c(=O)c2cc1OCC | – | -37.1% | 4.61 µM [falling, full curve, poor fit] |
| Cc1cccc(NC(=O)C2CC(=O)OC23CCCCC3)c1 (configuration not stated) | 0.58 µM [falling, single point] | -54.9% | 25.9 µM [falling, single point] |
| CCOc1ccc(C(=O)SC2=NCCS2)cc1 | 29.1 µM [falling, single point] | -25.9% | – |
| O=C(CNC(=O)c1cccs1)N=Nc1c(O)[nH]c2ccc([N+](=O)[O-])cc12 | 29.1 µM [falling, single point] | -10.4% | – |
| CC(C)SCC(=O)Nc1ncc2c(n1)-c1ccccc1CC2 | – | 46.3% | – |
| Cc1ccccc1C(=O)NNC(=O)c1cccc(Br)c1 | 29.1 µM [rising, single point] | 11.7% | – |
| O=C(Nc1nnc(CCN2CCOCC2)s1)c1ccccc1 | 3.26 µM [rising, full curve, poor fit] | 18.9% | 0.164 µM [rising, full curve, poor fit] |
| N#Cc1nc(-c2ccco2)oc1N1CCCC1 | 6.51 µM [falling, single point] | 17.9% | – |
| O=C(CNC(=O)c1cccc(F)c1)OCc1cc(=O)n2cc(Br)ccc2n1 | 6.51 µM [rising, single point] | -34.8% | 2.91 µM [falling, partial curve] |
| COCC(C)n1c(C)cc(C(=O)COc2ccc(N(C)S(=O)(=O)c3ccc(NC(C)=O)cc3)cc2)c1C (configuration not stated) | – | 42.8% | 7.31 µM [rising, partial curve] |
| O=C(NCCN1CCOCC1)C1CCC(=O)N1Cc1ccc(F)cc1 (configuration not stated) | 29.1 µM [falling, partial curve] | -9.91% | 0.82 µM [falling, full curve, poor fit] |
| Cn1cc(/C=N\NC(=O)C2COc3ccccc3O2)c2ccccc21 (configuration not stated) | – | -14.4% | – |
| Cc1ccccc1N(C(=O)CCCC(=O)Nc1ccccn1)C(C(=O)NC1CCCC1)c1ccc(O)cc1 (configuration not stated) | 0.231 µM [rising, full curve, poor fit] | 3.78% | – |
| CCCCOc1ccc(CSC(=N)N)cc1Cl | – | -43% | 9.2 µM [falling, partial curve, poor fit] |
| O=C(NC1CCOCC1)C1CCC(=O)N(Cc2cccc(C(F)(F)F)c2)C1 (configuration not stated) | 6.51 µM [falling, single point] | – | – |
| COC(=O)c1ccccc1NC(=O)c1cc(OC)cc(OC)c1 | – | 127% | 3.66 µM [rising, full curve] |
| CSc1ccc(/C=N/NC(=O)CNc2ccc3ccccc3c2)cc1 | 18.4 µM [falling, single point] | -19.5% | – |
| Cc1cccc(OCC(=O)N2CCC3(CC2)CC(=O)c2ccccc2O3)c1 | – | 3.23% | – |
| COC(=O)c1ccc(NC(=O)CCN2CCOCC2)cc1 | 5.17 µM [rising, full curve] | -0.265% | – |

| Structure (SMILES) | AC50 [1] | cell number change | AC50 [2] |
| --- | --- | --- | --- |
| Clc1ccc2[nH]c3c(N4CCC5(CC4)OCCO5)ncnc3c2c1 | 5.17 µM [falling, full curve] | -16.9% | – |
| CC12CCC(=O)N1C(C(=O)Nc1nc3ccccc3s1)CS2 (configuration not stated) | 32.6 µM [falling, single point] | -17.5% | – |
| O=C(CCN1CCOCC1)N/N=C/c1cc([N+](=O)[O-])ccc1OC(F)F | 6.51 µM [falling, single point] | 13.3% | 6.51 µM [falling, single point] |
| CCc1cc(=O)oc2cc(C)cc(OCC(=O)NCCc3c[nH]c4ccccc34)c12 | 29.1 µM [falling, single point] | -0.872% | – |
| Cc1cc(=O)oc2cc(O[C@@H]3O[C@H](CO)[C@@H](O)[C@H](O)[C@H]3O)ccc12 | 1.64 µM [falling, partial curve, poor fit] | 38.9% | 5.17 µM [rising, partial curve, poor fit] |
| CNc1snc(C)c1C(=O)OCC(=O)N(C)c1ccccc1 | 6.51 µM [falling, full curve, poor fit] | -20.5% | – |
| CCOc1cc(S(=O)(=O)NC2CC2)c(OCC)cc1-n1cnnn1 | – | 73.8% | 7.31 µM [rising, partial curve] |
| COc1ccc(C2(c3ccc(OC)cc3)NC(=O)N(CC(=O)NC3(C#N)CCCCC3)C2=O)cc1 | 6.51 µM [falling, single point] | -25.2% | 0.651 µM [falling, full curve, poor fit] |
| CC(=O)NCCc1nc2ccccc2n1Cc1ccc(C)cc1 | 32.6 µM [falling, single point] | -19.7% | – |
| COc1cccc(NC(=O)CSc2ccc3nnc(-c4cccnc4)n3n2)c1 | 35.5 µM [falling, single point] | -23.4% | – |
| COc1ccc(N2CCN(C(=O)CSc3ccccc3N)CC2)cc1 | 4.11 µM [rising, full curve, poor fit] | 7.48% | – |
| O=C(O)c1nccnc1C(=O)N1CCN(c2ccccc2)CC1 | 29.1 µM [rising, single point] | -5.23% | – |
| Cc1ccc(C)c(NS(=O)(=O)c2ccc(OCC(=O)NCC3CCCO3)cc2)c1 (configuration not stated) | 4.61 µM [rising, partial curve, poor fit] | -15.7% | – |
| CCN(C(=O)CSc1ncnc2c1cnn2-c1ccccc1)C1CCS(=O)(=O)C1 (configuration not stated) | 0.92 µM [falling, partial curve] | -17.6% | – |
| COc1ccc(N(C)C(=O)c2cc3c(s2)-c2ccccc2S(=O)(=O)C3)cc1 | 9.2 µM [rising, partial curve] | 47.4% | 7.31 µM [rising, partial curve] |
| Cc1cc([N+](=O)[O-])ccc1N=Nc1c(N)[nH]n(-c2ccccc2)c1=O | 1.64 µM [rising, partial curve] | – | 3.26 µM [rising, partial curve] |
| CC(=O)Nc1ccc(OCC(=O)NCc2ccc3c(c2)OCO3)cc1 | – | -18.3% | – |
| COc1ccc(Cc2nc(-c3ccc(Br)cc3)no2)cc1 | – | – | 2.31 µM [rising, single point] |

Record cards (already shown).
Cc1cc(=O)oc2cc(O[C@@H]3O[C@H](CO)[C@@H](O)[C@H](O)[C@H]3O)ccc12 in the list: AC50 [1]: 1.64 µM [falling, partial curve, poor fit]; cell number change: 38.9%; AC50 [2]: 5.17 µM [rising, partial curve, poor fit]
CC(=O)Nc1ccc(OCC(=O)NCc2ccc3c(c2)OCO3)cc1 in the list: cell number change: -18.3%
CCOc1cc(S(=O)(=O)NC2CC2)c(OCC)cc1-n1cnnn1 in the list: cell number change: 73.8%; AC50 [2]: 7.31 µM [rising, partial curve]
CCOc1cc2[nH]c(=O)n(CCCCCC(=O)NC3CCCC3)c(=O)c2cc1OCC in the list: cell number change: -37.1%; AC50 [2]: 4.61 µM [falling, full curve, poor fit]
